According to patent publication US12472448B2, “Compact hydroxamate-based affinity tags for artificially tagging biological macromolecules” (The Board of Trustees of the Leland Stanford Junior …, priority 2019, dated 2025):
At least one structure is not confirmed: it was looked up by name or label, or the drawing left a doubt.

Experiment: Yb-NTA IMAC enrichment of hydroxamate-labeled cysteine peptide from tryptic BSA peptides

Q: For `O=C(CN1CCN(C(=O)CI)CC1)NO` [compound (2)], which “increase in the fractional abundance of labeled peptides” value (single pass over Yb(III)-loaded NTA agarose, labeled at a cysteine residue) is on record?
A: 86 fold

Q: What about the “yield for the peptide of interest” value (single pass, 1000-fold excess of tryptic BSA s, loaded at pH 9, eluted at pH 3.75) of the same compound?
A: 70%
